# Experimental data reported in PubChem BioAssay (EPA / NIEHS).
# Sequences of proteins named here, by UniProt entry; tags and fusion partners are left off.
# UniProt P04637, whole entry, looked up: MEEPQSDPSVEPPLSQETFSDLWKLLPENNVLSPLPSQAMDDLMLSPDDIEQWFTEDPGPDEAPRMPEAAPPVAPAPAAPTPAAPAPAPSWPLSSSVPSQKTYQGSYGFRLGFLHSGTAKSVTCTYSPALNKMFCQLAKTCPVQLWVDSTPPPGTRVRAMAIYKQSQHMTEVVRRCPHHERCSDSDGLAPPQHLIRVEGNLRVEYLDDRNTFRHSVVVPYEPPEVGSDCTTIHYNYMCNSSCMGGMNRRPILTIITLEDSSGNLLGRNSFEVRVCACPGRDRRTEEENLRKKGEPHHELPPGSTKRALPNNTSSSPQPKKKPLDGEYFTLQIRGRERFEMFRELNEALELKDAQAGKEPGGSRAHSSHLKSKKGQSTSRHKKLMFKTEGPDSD
# Values joined by “and” are separate entries in the source; they are usually repeats but may differ in a detail not shown here. Equal entries are not always repeated. Inconclusive results, whose numbers are uncertain, are shown with a selection of clear calls. Potencies beside an inconclusive call are fits to weak or partial responses and may not hold up. Active and inactive are the calls of the source. The calls were made as follows: active = hit-call score of the fitted dose curve at least 0.9, where 1 is the maximum; inconclusive = response in the unintended direction; inactive = score below 0.9.
# Target: Cellular tumor antigen p53 (Homo sapiens) (UniProt P04637)
# Test: TOX21_p53_BLA_p3_ratio: Tox21 HCT-116 p53 Agonism Beta-lactamase Assay, Ratio, Phase 3 (AID 2283596)
# In short: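 Cells were seeded at 4000/well, rested 5 h at 37C, then dosed with DMSO compound solutions (217-fold dilution) for 16 h. CCF4-AM substrate was loaded for 2 h at room temperature, and the 460/530 nm emission ratio was fitted for gain of signal versus DMSO.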
SMILES,AC50,outcome
COc1cc(C[C@@H](C)N)c(OC)cc1Br,inconclusive: 91.9 µM,–
CCCCN(N=O)C(=N)N[N+](=O)[O-],active: 56.4 µM,–
CCC1(C)CC(=O)NC(=O)C1,inconclusive: 10.3 µM,–
C[N+](C)(C)C,inconclusive: 86.6 µM and inconclusive: 37.6 µM,–
C1CCNCC1,–,inactive
N#CC(Cl)(Cl)Cl,–,inactive
O=[N+]([O-])c1ccc(CBr)cc1,active: 94.3 µM,–
CSCCCN=C=S,active: 20.9 µM,–
CCC1(c2ccccc2)C(=O)NC(=O)NC1=O,–,inactive
C[C@]1(O)CC[C@H]2[C@@H]3CCC4=CC(=O)CC[C@]4(C)[C@@]3(F)[C@@H](O)C[C@@]21C,inconclusive: 46.3 µM and inconclusive: 23 µM,–
Cc1c(Cl)c(=O)oc2cc(OP(=O)(OCCCl)OCCCl)ccc12,–,inactive
BrCC(Br)(Br)Br,active: 13.1 µM,–
O=C(Cl)c1ccccc1,–,inactive
CC(C)c1c(CN(C)C(C)Cc2ccccc2)n(C)n(-c2ccccc2)c1=O (centres undefined),inconclusive: 18 µM,–

# Tested on: not listed separately
# Test: TOX21_p53_BLA_p4_viability: Viability Assessment in the Tox21 HCT-116 p53 Agonism Beta-lactamase Assay, Phase 4 (AID 2283597);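 also: hits lower the luminescence signal meaning cytotoxicity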
# In short: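 Cytotoxicity as reduced cellular ATP (CellTiter-Glo luminescence, 30 min room temperature), measured in the same wells following the CCF4 FRET p53 reading. Human HCT-116 cells received compounds in DMSO (217-fold dilution) for 16 h.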
SMILES,AC50,outcome
O=[N+]([O-])c1ccccc1-c1ccccc1,inconclusive: 0.00112 µM,–
CCCCCCCCCC(=O)O[C@H]1CC[C@H]2[C@@H]3CCC4=CC(=O)CC[C@]4(C)[C@H]3CC[C@]12C,inconclusive: 23 µM,–
COc1cc(C[C@@H](C)N)c(OC)cc1Br,–,inactive
CCCCN(N=O)C(=N)N[N+](=O)[O-],inconclusive: 0.026 µM,–
Nc1ccccc1Cl,–,inactive
O=[N+]([O-])c1cc(Cl)c(Cl)c(Cl)c1,inconclusive: 45.7 µM,–
CCC1(C)CC(=O)NC(=O)C1,inconclusive: 10.3 µM,–
C[N+](C)(C)C,–,inactive
CCCCCON=O,inconclusive: 46.2 µM,–
CC=CCC#N,inconclusive: 47 µM,–
O=C1NCN(c2ccccc2)C12CCN(CCCOc1ccc(F)cc1)CC2,–,inactive
Nc1ccccc1-c1ccccc1,–,inactive
CCOP(=O)(OCC)OP(=O)(OCC)OCC,inconclusive: 46.1 µM,–
O=c1[nH]c2ccccc2n1CCCN1CCC(n2c(=O)[nH]c3cc(Cl)ccc32)CC1,inconclusive: 5.9e-05 µM,–
C1CCNCC1,inconclusive: 47.4 µM,–
CN[C@@H](C)[C@H](O)c1ccccc1,inconclusive: 0.0279 µM,–
O=C(O)/C=C/C(=O)O,inconclusive: 46.1 µM and inconclusive: 83.2 µM,–
CC[N+]1(C)CCCC(OC(=O)C(O)(c2ccccc2)c2ccccc2)C1 (centres undefined),inconclusive: 23 µM,–
N#CC(Cl)(Cl)Cl,inconclusive: 45.1 µM,–
O=[N+]([O-])c1ccc(CBr)cc1,–,inactive
CSCCCN=C=S,inconclusive: 46.1 µM,–
CCC1(c2ccccc2)C(=O)NC(=O)NC1=O,inconclusive: 0.933 µM,inactive
CC1CCCC1,inconclusive: 1.06 µM,–
C[C@]1(O)CC[C@H]2[C@@H]3CCC4=CC(=O)CC[C@]4(C)[C@@]3(F)[C@@H](O)C[C@@]21C,inconclusive: 23 µM,–
Cc1c(Cl)c(=O)oc2cc(OP(=O)(OCCCl)OCCCl)ccc12,inconclusive: 23 µM,–
COP(N)(=S)Oc1ccccc1C(=O)OC(C)C (centres undefined),–,inactive
BrCC(Br)(Br)Br,–,inactive
O=C(Cl)c1ccccc1,–,inactive
CC(C)c1c(CN(C)C(C)Cc2ccccc2)n(C)n(-c2ccccc2)c1=O (centres undefined),inconclusive: 0.000205 µM,–
